This is an account of results in article PMC7819943, “Rice protein-binding microarrays: a tool to detect cis-acting elements near promoter regions in rice”.

Some of the results follow.

The target in this assay is T1, OsSMF1 (Oryza sativa, UniProt Q6ZLB0 1-436).
T1 sequence: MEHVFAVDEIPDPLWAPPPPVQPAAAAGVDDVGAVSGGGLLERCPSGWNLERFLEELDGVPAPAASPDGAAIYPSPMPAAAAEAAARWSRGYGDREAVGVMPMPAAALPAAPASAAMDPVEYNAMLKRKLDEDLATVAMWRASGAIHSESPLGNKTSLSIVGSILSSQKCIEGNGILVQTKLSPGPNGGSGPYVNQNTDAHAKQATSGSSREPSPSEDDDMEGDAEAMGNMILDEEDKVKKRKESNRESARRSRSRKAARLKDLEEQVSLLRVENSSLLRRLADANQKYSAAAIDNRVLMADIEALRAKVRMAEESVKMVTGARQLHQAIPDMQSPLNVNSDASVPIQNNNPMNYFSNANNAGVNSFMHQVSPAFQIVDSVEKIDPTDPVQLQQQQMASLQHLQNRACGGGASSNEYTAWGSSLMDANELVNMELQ
Kind of assay: protein-binding microarray (RPBM); PBS, 2% BSA, 51.3 ng/ul salmon testes DNA, 50 uM zinc acetate, 200 nM TF, 25 C, 1 h; high values mean tight binding. Particulars: protein: recombinant; tags: N-terminal polyhistidine and DsRed monomer fusion (pET32a); chain copies: 2; label: CyDye5-dUTP incorporated in the synthesized complementary strand; 3' TTTTT single-stranded linker to array surface; dsDNA, one strand shown. The method in brief: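 Transcription factors were each fused at the N-terminus to a polyhistidine tag plus DsRed and expressed in E. coli BL21-CodonPlus before Ni–NTA purification. Binding to a double-stranded custom Agilent array was carried out with 200 nM protein at 25 °C for 1 h in PBS, 2% BSA, salmon testes DNA and 50 µM zinc acetate. The binding signal is per-feature fluorescence intensity, in arbitrary units, on an Axon 4000B scanner.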
“ACACATGCATCAAGTAGAGGATACGGGGATTACACGTGGACGGAGTCACCTAGTGCAG”: the binding signal was 8700 fluorescence intensity (a.u.).

Consider “GGCATCCTCTATCCCGTCGCCACGTCCTCCGCCGCGGCGGCGGAGTCACCTAGTGCAG”, for which the binding signal is 7540 fluorescence intensity (a.u.).

Regarding “TTGCTGAATATATGAGTGCGATGCTACGTGTATATTGATGCGGAGTCACCTAGTGCAG”, the binding signal is 5560 fluorescence intensity (a.u.).

“ATACACGGCGACGCCCAAGGGCTTATCAAACTCTATCCACCGGAGTCACCTAGTGCAG”: the binding signal was 3190 fluorescence intensity (a.u.).

In the case of “CACCAGCCGCAGCGTCAGCCTCCGCCTCCACCTACGTCGCCGGAGTCACCTAGTGCAG”, the binding signal was 5010 fluorescence intensity (a.u.).

Take “TGTTGTAAGATAGTCTCTGAAAGCCTCTACCAGATTCCACCGGAGTCACCTAGTGCAG”: the binding signal is 28700 fluorescence intensity (a.u.).

On to “ACGCACCTCCTCCCGCCTCGTCGTGGCGGCTCATTTAATCCGGAGTCACCTAGTGCAG”, for which the binding signal was 4620 fluorescence intensity (a.u.).

“GGTTAATTTCTAGGGTATGGTGATGGTAATGTTGCGGCGACGGAGTCACCTAGTGCAG”: the binding signal was 3280 fluorescence intensity (a.u.).

Take “CGCCGTACTCGGTACTCCATCAGCCTACTCAGCGTCACCTCGGAGTCACCTAGTGCAG”: the binding signal was 5680 fluorescence intensity (a.u.).

In the case of “ATCAAGATAGTTCGGCCCATCCTAGCTTTTAGTCCATCACCGGAGTCACCTAGTGCAG”, the binding signal is 28900 fluorescence intensity (a.u.).

As for “GCCGCCGTGGCCGTGGCCGTGGCCGCCGCCGTGGCGAGGCCGGAGTCACCTAGTGCAG”, the binding signal is 4360 fluorescence intensity (a.u.).

Consider “TGGGCCGTGATTGAGGCCTATATATACGTGGCCTGACAAACGGAGTCACCTAGTGCAG”, for which the binding signal is 4000 fluorescence intensity (a.u.).

As for “TCCGCCGGAAACCACCGCCACGTTCTGCCCCGAGATGGGTCGGAGTCACCTAGTGCAG”, the binding signal is 3590 fluorescence intensity (a.u.).

Take “ATCGAGCAGCTTGCATCGTATGACTGTAGAGATGATTCAGCGGAGTCACCTAGTGCAG”: the binding signal is 3670 fluorescence intensity (a.u.).

For the sequence “TGCTCAGCCAATGTTCCCAGTCGGCCGGCCACGGAGGCGGCGGAGTCACCTAGTGCAG”, the binding signal is 3410 fluorescence intensity (a.u.).

“ACATTCCCTTGTTGTTTCCTTGTCATCTAAATTGTTATAACGGAGTCACCTAGTGCAG”: the binding signal is 4120 fluorescence intensity (a.u.).

In the case of “TTCCAATGGCAAGACAGTGAGATAACCATTATCCACATCACGGAGTCACCTAGTGCAG”, the binding signal was 4190 fluorescence intensity (a.u.).

In the case of “GTTCAGCTGAGCCTGGTGAACTAGAAAAGTTCCAACAGCGCGGAGTCACCTAGTGCAG”, the binding signal is 4470 fluorescence intensity (a.u.).

Turning to “CATCGCGTTGTAACTTGTAAGACGTGTATACTCTTGTTACCGGAGTCACCTAGTGCAG”, the binding signal is 3650 fluorescence intensity (a.u.).

For the sequence “TGGCTTGTTGCAAGTTTACAAAGAGTACGTGTTCACTTGACGGAGTCACCTAGTGCAG”, the binding signal was 3310 fluorescence intensity (a.u.).

Regarding “CATTCCCTCCTCCTCCTCCTCCTCCTCCTGAATCCCTCCTCGGAGTCACCTAGTGCAG”, the binding signal is 3380 fluorescence intensity (a.u.).

On to “ATATAACCATGGTGGTGGTTGGTGGTAGACTCACCGCCACCGGAGTCACCTAGTGCAG”, for which the binding signal is 3160 fluorescence intensity (a.u.).

Take “TCAATCTGCTTACACGCCTTTCTTGTTAGTGCTATAGGTTCGGAGTCACCTAGTGCAG”: the binding signal is 3330 fluorescence intensity (a.u.).

On to “TGCGGTTTTAACCTCGTCCAGGTGGCCATTTCTATCCAGGCGGAGTCACCTAGTGCAG”, for which the binding signal is 4670 fluorescence intensity (a.u.).

With “ATAACTGCACCACACGCGCTTACTCATCTCTCTCAACACGCGGAGTCACCTAGTGCAG”, the binding signal is 5490 fluorescence intensity (a.u.).

With “GTACCTTCGACGCTTCGCCTTGTCAGTCACTGTCCCCTTCCGGAGTCACCTAGTGCAG”, the binding signal was 5320 fluorescence intensity (a.u.).

With “CACCCAAATGACGCACGACGCAGCGTGAGCACTGGCAAACCGGAGTCACCTAGTGCAG”, the binding signal was 3820 fluorescence intensity (a.u.).

As for “AACTAATGAATAGTGTGACGTATTGCCGAAATTTCTCAACCGGAGTCACCTAGTGCAG”, the binding signal was 7380 fluorescence intensity (a.u.).

Take “CTATCTATACATGACACGCCCCGTCTCCCTCCTTGCTTGACGGAGTCACCTAGTGCAG”: the binding signal is 3990 fluorescence intensity (a.u.).

Take “ATACGATACCATAGGTATGTCAGCATGATATATATGTACTCGGAGTCACCTAGTGCAG”: the binding signal was 3890 fluorescence intensity (a.u.).

As for “GCACCCATATGCAGCTCCGCCTGAATGCCGTCTCCGCACACGGAGTCACCTAGTGCAG”, the binding signal is 19700 fluorescence intensity (a.u.).

Turning to “GAGTGCAGGTCACACAGATACGATCCACACAATAGAGAGACGGAGTCACCTAGTGCAG”, the binding signal was 4590 fluorescence intensity (a.u.).

On to “GAGCCTCCTCCACGCCACGTCAGCCTCTTCGGTGACGACCCGGAGTCACCTAGTGCAG”, for which the binding signal is 17000 fluorescence intensity (a.u.).

In the case of “AACTAAGTGGCCGGCGTTAGGTAAGACGAGGACAGGCTCGCGGAGTCACCTAGTGCAG”, the binding signal was 26100 fluorescence intensity (a.u.).

Turning to “ATATATATGTATACGTACGTACGTACGTATGTATGTATGTCGGAGTCACCTAGTGCAG”, the binding signal is 3510 fluorescence intensity (a.u.).

In the case of “CCAAACCAATCAAACGCATTCTATCCTAGTTGGCATAACCCGGAGTCACCTAGTGCAG”, the binding signal is 4040 fluorescence intensity (a.u.).

Regarding “AAACCCTCCCCTCTCCGCGAACCCTAACACCATCCGGCGGCGGAGTCACCTAGTGCAG”, the binding signal is 3550 fluorescence intensity (a.u.).

In the case of “CTAACATGTGGGGTGGGTCACACCTTGACTCAGCGTGGTTCGGAGTCACCTAGTGCAG”, the binding signal is 8940 fluorescence intensity (a.u.).

On to “CATCCGCCATCTCATCTAATCTCATCCGTCCATCGCTATCCGGAGTCACCTAGTGCAG”, for which the binding signal is 3680 fluorescence intensity (a.u.).

For “AGACTGGGTACACATTAAGAATTCCCATAAATCTTCATAGCGGAGTCACCTAGTGCAG”, the binding signal was 37900 fluorescence intensity (a.u.).

Take “CTTGTTTGATCAAACCGATGCGACGCAGAGAGAGAGAGGTCGGAGTCACCTAGTGCAG”: the binding signal was 39400 fluorescence intensity (a.u.).

Turning to “ATCTTTTGGGATGACGTGTTCTCACTTGCATCTTTCCAATCGGAGTCACCTAGTGCAG”, the binding signal was 10400 fluorescence intensity (a.u.).

For “AAATCGTTTCTTTGATGTGGCATGAAGGGACGAGTCGGAGCGGAGTCACCTAGTGCAG”, the binding signal was 4280 fluorescence intensity (a.u.).

Regarding “GCCACACATTGCATCATCTACTGTAGGACTAAATCAATCTCGGAGTCACCTAGTGCAG”, the binding signal was 4770 fluorescence intensity (a.u.).

With “TGGAAGCTGCTGGGAAGCCCTTCTAAAAGAAGGAAGGATCCGGAGTCACCTAGTGCAG”, the binding signal was 24000 fluorescence intensity (a.u.).

For “AGTTTTAGTATATACGACATTACGGTGAGTAATAATAAGACGGAGTCACCTAGTGCAG”, the binding signal was 33600 fluorescence intensity (a.u.).

Regarding “CAGATTTTAACTTGTATGTTTGCGAAAAGATATATCATATCGGAGTCACCTAGTGCAG”, the binding signal was 17300 fluorescence intensity (a.u.).

With “GAGAGAGAGAGAGGGATTTCCCCTTGGCTCCGCGTCGATACGGAGTCACCTAGTGCAG”, the binding signal is 3520 fluorescence intensity (a.u.).

For the sequence “TCGGAGTTTGTGAACATAAAGAATAATTGTATTGGAAATACGGAGTCACCTAGTGCAG”, the binding signal is 31800 fluorescence intensity (a.u.).

With “ATATTATATTAAATTTGTAGTTTTACGATAATATGGTAAACGGAGTCACCTAGTGCAG”, the binding signal was 25400 fluorescence intensity (a.u.).

Consider “CGAGTTTGTTTCCTGCTGTCTGTGCGATAATGTTTTCTGCCGGAGTCACCTAGTGCAG”, for which the binding signal was 33300 fluorescence intensity (a.u.).

Turning to “CCTGAAGTTCTAGATGTTGATTTTGTCATGATGATCTAATCGGAGTCACCTAGTGCAG”, the binding signal was 4580 fluorescence intensity (a.u.).

Consider “GGGATTTCATACTAGATGTCAGCAATTCTTGCAGCATCTCCGGAGTCACCTAGTGCAG”, for which the binding signal was 4770 fluorescence intensity (a.u.).

Regarding “GGAAACACCAATATGAATATGATGTGGGCAACTCAAGGCCCGGAGTCACCTAGTGCAG”, the binding signal is 3840 fluorescence intensity (a.u.).
